The experiment addresses human TGR5 (h-TGR5) (Homo sapiens, UniProt Q8TDU6). As to the kind of experiment: TGR5/CRE-Luciferiase Assay (HEK 293 hTGR5/CRE-Luc cells). It is filed as cell-based. The settings on record: read-out: CRE-Luc (EC50); h-TGR5 CRE-Luc EC50, Table 1.

Amino acid sequences for entries named in this document (tags omitted).
UniProt Q8TDU6, whole entry: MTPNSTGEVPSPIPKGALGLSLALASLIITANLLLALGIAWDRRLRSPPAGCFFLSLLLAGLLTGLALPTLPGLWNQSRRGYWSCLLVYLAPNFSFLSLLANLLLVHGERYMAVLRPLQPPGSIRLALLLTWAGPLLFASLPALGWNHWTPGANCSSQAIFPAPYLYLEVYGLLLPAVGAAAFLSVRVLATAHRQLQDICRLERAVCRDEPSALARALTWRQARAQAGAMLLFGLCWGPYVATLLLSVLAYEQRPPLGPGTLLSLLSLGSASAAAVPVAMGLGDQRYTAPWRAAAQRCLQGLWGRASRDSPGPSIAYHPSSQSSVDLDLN

From patent US8785488B2 (Exelixis Patent Company LLC, priority 2009, dated 2014) come the findings set out here.

Structures were worked out from names or drawings and are uncertain.

Turning to `CC(C)(c1ccc(Cl)c(Cl)c1)c1cnc(S(=O)(=O)Cc2c(F)cccc2Cl)n1-c1ccc(Cl)cc1`, the EC50 was 0.1 to 1 µM. In the case of `CC(C)(c1ccc(Cl)c(Cl)c1)c1cnc(CSc2ccc(F)cc2Cl)n1-c1ccc(F)cc1`, the concentration giving a half-maximal response (EC50) was in the range of 0.1 to 1 µM.

What is called EC50 is the concentration giving half of the maximal effect.
